Test results as given in the supplement of paper PMC3334620.
The full ranking holds about 33,000 sequences; the median of “E-score (-0.5 to 0.5)” is about -0.0014, and the highest 2% start at about 0.25. The list shows a part of the results.

Biological target: T1, Cad1 (UniProt P24813)
T1 sequence: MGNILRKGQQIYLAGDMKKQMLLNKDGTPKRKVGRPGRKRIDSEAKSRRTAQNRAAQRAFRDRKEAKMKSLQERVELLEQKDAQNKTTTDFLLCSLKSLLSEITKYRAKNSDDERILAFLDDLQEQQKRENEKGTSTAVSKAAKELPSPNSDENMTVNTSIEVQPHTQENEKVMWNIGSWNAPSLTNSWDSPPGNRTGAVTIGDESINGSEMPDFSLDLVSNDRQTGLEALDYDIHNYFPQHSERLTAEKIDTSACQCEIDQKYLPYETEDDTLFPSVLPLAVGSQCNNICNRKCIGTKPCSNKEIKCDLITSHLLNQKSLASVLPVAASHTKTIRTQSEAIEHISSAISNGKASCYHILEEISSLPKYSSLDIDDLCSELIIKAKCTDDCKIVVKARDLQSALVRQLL
Test: PBM E-score (8-mer binding enrichment) (E-score (-0.5 to 0.5)); higher = stronger / more preferred TF binding
Conditions: protein concentration: 100 nM; construct: GST-full length
Method in brief: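 PURExpress in vitro transcription/translation supplied GST-tagged yeast transcription factors, either full-length or DNA-binding domain. Applied at about 100-200 nM to universal all-10-mer Agilent arrays double-stranded by primer extension, the bound protein was detected with fluorescent anti-GST. E-scores, modified Wilcoxon-Mann-Whitney statistics, were given by the Universal PBM Analysis Suite to ungapped eight-base words pooled with their reverse complements after masliner normalisation.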

Row | Sequence | PBM E-score
1 | CAAGTGGC | 0.0487
2 | CACCTGAC | -0.0154
3 | ATAAGCTG | 0.116
4 | ATTCGGGG | 0.0825
5 | CGGCTCCC | -0.287
6 | CGCGCTTC | 0.0321
7 | CGGGTGTC | 0.0393
8 | CAGCTTTA | 0.00349
9 | AGCGCCTA | -0.0068
10 | AAGACTCC | -0.174
11 | ACTAGCCA | -0.00929
12 | CCAGCTAC | -0.225
13 | CGATCGCC | 0.207
14 | GAAGTACA | -0.0347
15 | CACGCTAC | -0.108
16 | AAAGGAGC | -0.261
17 | TAAGCCCA | -0.0135
18 | AACGTCCC | -0.156
19 | GTGGACAA | 0.143
20 | CGAGTGTC | 0.125
21 | AAGGGTCC | -0.166
22 | CTATTACA | 0.123

Row | Sequence | PBM E-score
23 | GGGTCGGA | -0.176
24 | ACTGGTGG | 0.00404
25 | GAACCTCA | -0.131
26 | ACACGGAG | -0.104
27 | CTCTTTCC | -0.264
28 | CCTACTGA | -0.00291
29 | ATGTAACC | -0.0284
30 | CAGACAAC | 0.0003
31 | ACTCGGTG | 0.0449
32 | TGTCAACA | -0.0139
33 | ATAGCCTC | -0.0947
34 | AAACTTGG | -0.0357
35 | GGTCCCGA | -0.173
36 | CGCGCTAC | 0.26
37 | GCCGGATA | 0.123
38 | GGGTTTCA | -0.00024
39 | GAACCTGA | -0.0206
40 | CAGCTTAA | 0.0425
41 | CATCGCAA | -0.118
42 | GGACAACA | 0.176
43 | ACCTTCGA | 0.0781
44 | ACACGACT | -0.0339

Row | Sequence | PBM E-score
45 | TGACAAAA | 0.251
46 | TGCGCCCA | -0.0665
47 | TCACGGGA | 0.145
48 | AGATACAT | 0.0937
49 | AACTGTGA | 0.11
50 | CCCGTCAG | -0.344
51 | GGAAAGTA | -0.0457
52 | ACCCCTCA | -0.222
53 | GCAAGCGC | -0.0234
54 | AAATGAGT | 0.196
55 | ACGAAAGT | 0.0253
56 | GGACACCC | -0.0975
57 | AAGCGAGC | 0.0347
58 | TGGACCCA | -0.133
59 | AACCAATC | 0.0878
60 | ATACATAG | 0.131
61 | CATGACAG | 0.103
62 | ATAAGAGA | 0.076
63 | GTGAAATA | 0.0377
64 | AACTTCAA | 0.0814
65 | ATAAAACC | 0.116
66 | CTACGCGA | 0.0451

Row | Sequence | PBM E-score
67 | GAAGACCC | -0.256
68 | TAAATGGA | 0.0699
69 | CCCAAATA | 0.027
70 | CTAATAGC | 0.0948
71 | ATGTCAAG | -0.0353
72 | AAATAGGC | -0.012
73 | AGTATGGG | -0.146
74 | GGAGCCTA | -0.145
75 | CATAAGAA | 0.103
76 | GAGGCGCA | -0.0886
77 | AAGTGCGC | 0.0295
78 | GTATAAAC | 0.112
79 | ATGAAAGG | -0.00648
80 | GCGAACCA | 0.12
81 | CCACGCAG | 0.0352
82 | ACCATACT | 0.089
83 | CGACTCCC | -0.0265
84 | AATTATAA | 0.276
85 | TACCTTGA | 0.038
86 | TAAGAAGA | 0.164

4 entries from above, set out differently:

| Row | Sequence | PBM E-score |
| --- | --- | --- |
| 26 | ACACGGAG | -0.104 |
| 27 | CTCTTTCC | -0.264 |
| 28 | CCTACTGA | -0.00291 |
| 29 | ATGTAACC | -0.0284 |
